{"source": "patent US10913710B2", "about": "“Benzene disulfonamide for the treatment of cancer” (priority 2017, dated 2021)", "origin": "cited, not measured here", "conditions": "cited from earlier work", "note": "At least one compound was matched to its structure with a doubt left.", "data": [{"smiles": "c1ccc(Cn2c(-c3ccc(OC[C@H](C4CCNCC4)n4c(-c5ccccc5)nc5ccccc54)cc3)nc3ccccc32)cc1", "note": "[Deltarasin, reference compound]", "values": [{"measurement": "cellular activity", "value": "only at micromolar concentrations"}]}]}
